{"sequences": {"note": "Amino acid sequences for entries named in this document (tags omitted). Residues count along the entry.", "UniProt P08069, residues 31-932": "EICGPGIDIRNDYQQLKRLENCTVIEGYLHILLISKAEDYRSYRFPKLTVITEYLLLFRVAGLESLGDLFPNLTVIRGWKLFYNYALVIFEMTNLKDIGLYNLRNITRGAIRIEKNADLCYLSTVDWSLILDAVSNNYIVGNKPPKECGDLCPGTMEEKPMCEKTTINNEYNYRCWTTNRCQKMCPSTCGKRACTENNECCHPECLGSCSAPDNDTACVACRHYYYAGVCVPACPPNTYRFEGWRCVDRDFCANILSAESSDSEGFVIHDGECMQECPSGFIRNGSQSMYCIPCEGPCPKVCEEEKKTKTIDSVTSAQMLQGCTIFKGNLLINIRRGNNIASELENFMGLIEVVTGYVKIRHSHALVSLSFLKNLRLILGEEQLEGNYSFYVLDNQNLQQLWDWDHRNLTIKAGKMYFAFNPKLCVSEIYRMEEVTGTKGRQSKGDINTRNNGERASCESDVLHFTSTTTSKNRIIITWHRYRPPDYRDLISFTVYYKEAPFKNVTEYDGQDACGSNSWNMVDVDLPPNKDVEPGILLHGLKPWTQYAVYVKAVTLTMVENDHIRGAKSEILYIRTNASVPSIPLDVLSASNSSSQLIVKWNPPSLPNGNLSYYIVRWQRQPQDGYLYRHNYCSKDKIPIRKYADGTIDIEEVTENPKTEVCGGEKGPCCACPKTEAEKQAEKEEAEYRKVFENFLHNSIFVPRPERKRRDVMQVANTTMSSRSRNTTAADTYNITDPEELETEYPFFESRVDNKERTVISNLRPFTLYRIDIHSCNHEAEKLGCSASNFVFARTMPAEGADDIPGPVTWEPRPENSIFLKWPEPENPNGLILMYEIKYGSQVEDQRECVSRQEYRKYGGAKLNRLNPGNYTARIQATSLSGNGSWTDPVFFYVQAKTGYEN"}, "source": "patent US20160046678A1", "about": "(ZYNGENIA, published 2016)", "note": "These are yes or no findings as the source states them, for the method shown. Some results given as binding are weak or reduced against the parent protein; the word gives no strength.", "data": [{"target": "IGF1R (UniProt P08069)", "assay": "MRD identification, Example 48", "values": [{"binder": "IPGLCLEFPELCFHQW", "note": "[IGF2034]", "binding": "binds"}, {"binder": "LCWEGYKWFYDQIKPD", "note": "[IGF2035]", "binding": "binds"}, {"binder": "GFHHAYYKYRGQAGQGSATGGSSRITPSDLCKEFPELCF", "note": "[IGF2036]", "binding": "binds"}, {"binder": "RCLANSYHCSGQAGQGSATGGSSRITPSDLCKEFPELCF", "note": "[IGF2038]", "binding": "binds"}, {"binder": "GSYCAPDWHNCFGQAGQGSRITPSDLCKEFPELCF", "note": "[IGF2040]", "binding": "binds"}, {"binder": "IPLLCLEFPVLCFENE", "note": "[IGF2041]", "binding": "binds"}, {"binder": "SLEHLCQTRDGFYELMCTLAL", "note": "[IGF2042]", "binding": "binds"}, {"binder": "SKDPVCKTKHQFYQMLCTLAF", "note": "[IGF2043]", "binding": "binds"}, {"binder": "DSGFYMGLHK", "note": "[IGF3]", "binding": "binds"}, {"binder": "MDQFHWALLG", "note": "[IGF10]", "binding": "binds"}, {"binder": "LCQEFHELCF", "note": "[IGF21]", "binding": "binds"}, {"binder": "LCDEFVELCF", "note": "[IGF22]", "binding": "binds"}, {"binder": "LCEEFHELCF", "note": "[IGF23]", "binding": "binds"}, {"binder": "LCDEFKELCF", "note": "[IGF24]", "binding": "binds"}, {"binder": "LCAEFPELCF", "note": "[IGF25]", "binding": "binds"}, {"binder": "ICHIFWQTCNGQAGQGGGSGGSKCDILEMMCN", "note": "[IGF27]", "binding": "binds"}, {"binder": "LCMEFPELCF", "note": "[IGF28]", "binding": "binds"}, {"binder": "LCMEFKELCF", "note": "[IGF29]", "binding": "binds"}, {"binder": "LCEEFPVLCF", "note": "[IGF30]", "binding": "binds"}, {"binder": "LCQEFIELCF", "note": "[IGF31]", "binding": "binds"}, {"binder": "LCLEFHELCF", "note": "[IGF32]", "binding": "binds"}, {"binder": "LCQEFSELCF", "note": "[IGF33]", "binding": "binds"}, {"binder": "LCEEFAELCF", "note": "[IGF34]", "binding": "binds"}, {"binder": "LCFEFVELCF", "note": "[IGF35]", "binding": "binds"}, {"binder": "LCSEFQVLCF", "note": "[IGF36]", "binding": "binds"}, {"binder": "LCLEFVELCF", "note": "[IGF38]", "binding": "binds"}, {"binder": "LCWEFPVLCF", "note": "[IGF39]", "binding": "binds"}, {"binder": "LCEEFIELCF", "note": "[IGF40]", "binding": "binds"}, {"binder": "WCEISTTFCNGQAGQGGGGGGSQCQLLHMFCH", "note": "[IGF42]", "binding": "binds"}, {"binder": "LCMEFEQLCF", "note": "[IGF43]", "binding": "binds"}, {"binder": "LCLEFRELCF", "note": "[IGF44]", "binding": "binds"}, {"binder": "LCQEFAELCF", "note": "[IGF45]", "binding": "binds"}, {"binder": "LCQEFKELCF", "note": "[IGF46]", "binding": "binds"}, {"binder": "LCLEFEELCF", "note": "[IGF48]", "binding": "binds"}, {"binder": "LCYEFEELCF", "note": "[IGF49]", "binding": "binds"}, {"binder": "LCMEFQELCF", "note": "[IGF50]", "binding": "binds"}, {"binder": "LCHEFEELCF", "note": "[IGF51]", "binding": "binds"}, {"binder": "LCYEFHELCF", "note": "[IGF52]", "binding": "binds"}, {"binder": "LCDEFQELCF", "note": "[IGF53]", "binding": "binds"}, {"binder": "WCQIQAFHCRGQAGQGGGSAGGGSSCNILQLMCS", "note": "[IGF54]", "binding": "binds"}, {"binder": "FECVLWNFVCK", "note": "[IGF55]", "binding": "binds"}, {"binder": "LCAEFPVLCF", "note": "[IGF56]", "binding": "binds"}, {"binder": "LCTEFKELCF", "note": "[IGF57]", "binding": "binds"}, {"binder": "LCQEFNELCF", "note": "[IGF59]", "binding": "binds"}, {"binder": "AMTLDEWIRMRGQAGGSWVDPAFWGDF", "note": "[IGF60]", "binding": "binds"}, {"binder": "FYGWFEEQIL", "note": "[IGF61]", "binding": "binds"}, {"binder": "FYEQLEKLVY", "note": "[IGF64]", "binding": "binds"}, {"binder": "FYEWFEEQLI", "note": "[IGF66]", "binding": "binds"}, {"binder": "FYEWFEAQIM", "note": "[IGF67]", "binding": "binds"}, {"binder": "FYDWFDMHVK", "note": "[IGF68]", "binding": "binds"}, {"binder": "SFYDMIELLIGQAGQGGGSGGGGGGSTIHFAQEEHP", "note": "[IGF69]", "binding": "binds"}, {"binder": "FYEWFEAQVM", "note": "[IGF72]", "binding": "binds"}, {"binder": "FYDWFAEQVI", "note": "[IGF73]", "binding": "binds"}, {"binder": "FYEWFTEQVN", "note": "[IGF74]", "binding": "binds"}, {"binder": "FYEWFHEQVI", "note": "[IGF75]", "binding": "binds"}, {"binder": "QFYEWFEAQT", "note": "[IGF76]", "binding": "binds"}, {"binder": "FYEWFQLQMD", "note": "[IGF77]", "binding": "binds"}, {"binder": "VHWEGYQWVY", "note": "[IGF78]", "binding": "binds"}, {"binder": "FYETLFELAY", "note": "[IGF79]", "binding": "binds"}, {"binder": "FYEWFEAALI", "note": "[IGF82]", "binding": "binds"}, {"binder": "FYDWFDMQVQ", "note": "[IGF83]", "binding": "binds"}, {"binder": "FYEWFEPQVT", "note": "[IGF84]", "binding": "binds"}, {"binder": "EFYYWFFDQY", "note": "[IGF85]", "binding": "binds"}, {"binder": "FYEWFDMQVK", "note": "[IGF91]", "binding": "binds"}, {"binder": "ADFYQWFQNQV", "note": "[IGF92]", "binding": "binds"}, {"binder": "SFYAWFDEQV", "note": "[IGF93]", "binding": "binds"}, {"binder": "EVWEGYDWLY", "note": "[IGF95]", "binding": "binds"}, {"binder": "SHPLCTEFIELCFGFE", "note": "[IGF196]", "binding": "binds"}, {"binder": "VPFLCLEFSELCFTDP", "note": "[IGF253]", "binding": "binds"}, {"binder": "ADLLCAEFTELCFDVI", "note": "[IGF254]", "binding": "binds"}, {"binder": "AHPLCLEFSELCFEAV", "note": "[IGF255]", "binding": "binds"}, {"binder": "PHPLCQEFEELCFETV", "note": "[IGF256]", "binding": "binds"}, {"binder": "ASQLCGEFPELCFDKV", "note": "[IGF257]", "binding": "binds"}]}]}
